Test results from PMC13436963.
Changes are numbered by the printed parent chain. Names may count otherwise. Results are given in words; binding and its absence hold for the method and conditions named. Binding seen in cells or lysates may run through a third protein. Some entries that bind do so weakly or less than the wild type. Sequences can lack the tags named with a protein.

B1: luciferase-tagged Drosophila Notch LNR domain (residues G1465 to V1600) (domain or fragment, UniProt P07207 1465-1600)
chain: GSGNDRYAADLEQQRAMCDKRGCTEKQGNGICDSDCNTYACNFDGNDCSLGINPWANCTANECWNKFKNGKCNEECNNAACHYDGHDCERKLKSCDSLFDAYCQKHYGDGFCDYGCNNAECSWDGLDCENKTQSPV
B2: luciferase-tagged Drosophila Notch LNR domain (G1465 to V1600) F1563A (domain or fragment, UniProt P07207 1465-1600)
chain: B1 chain with F99A
B3: luciferase-tagged Drosophila Notch LNR domain (G1465 to V1600) H1570A (domain or fragment, UniProt P07207 1465-1600)
chain: B1 chain with H106A
B4: Drosophila Notch LNR domain fused to split firefly luciferase fragments (LNR–NLuc and LNR–CLuc) (domain or fragment, UniProt P07207 1465-1600)
chain: B1 chain
B5: Drosophila Notch LNR domain F1563A fused to split firefly luciferase fragments (domain or fragment, UniProt P07207 1465-1600)
chain: B1 chain with F99A
B6: Drosophila Notch LNR domain H1570A fused to split firefly luciferase fragments (domain or fragment, UniProt P07207 1465-1600)
chain: B1 chain with H106A

Key:
[1] = biological target: EGFP-tagged full-length Drosophila Notch (Drosophila melanogaster) (UniProt P07207); assay: co-IP; luciferase-coupled co-immunoprecipitation: Notch–EGFP precipitated with GFP-Trap beads (1 hr, 4 °C) from lysate of S2 cells co-expressing LNR–Luciferase; co-precipitated luciferase activity normalised to lysate luciferase; lysis buffer 100 mM Tris-HCl pH 7.5, 150 mM NaCl, 1% Tergitol 15 S-9, 1 mM CaCl2
[2] = biological target: Drosophila Notch LNR domain fused to split firefly luciferase fragments (LNR–NLuc and LNR–CLuc) (Drosophila melanogaster) (UniProt P07207); assay: split reporter; split firefly luciferase complementation: 50 ng each of LNR–NLuc and LNR–CLuc co-transfected into S2 cells; firefly signal normalised to Renilla luciferase
[3] = biological target: Drosophila Notch LNR domain F1563A fused to split firefly luciferase fragments (Drosophila melanogaster) (UniProt P07207); assay: as above
[4] = biological target: Drosophila Notch LNR domain H1570A fused to split firefly luciferase fragments (Drosophila melanogaster) (UniProt P07207); assay: as above

Binder | binding [1] | further results
B1 | binds | –
B2 | binds | –
B3 | binds | –
B4 | – | binding [2]: binds
B5 | – | binding [3]: binds
B6 | – | binding [4]: binds
